In PubChem BioAssay AID488837 (National Center for Advancing Translational Sciences (NCATS), 2010):
Among all 330,000 compounds or so, about 20 (0.006%) were called active. Inconclusive means that the source gave no clear call. Such entries were picked first, then a sample of the others. The call rests on the fitted dose curve; in most records, active means well fitted inhibition curve with a large enough effect; inconclusive means small, poorly fitted or top-dose-only effect, or effect the other way; inactive means flat fitted curve, though single readings scatter. Potencies beside an inconclusive call are fits to weak or partial responses and may not hold up.

Chains of the proteins cited; added tags and fusions are not shown. Lines headed by an entry give the natural chain unless they say otherwise; changes in a name come on top.
UniProt O00167: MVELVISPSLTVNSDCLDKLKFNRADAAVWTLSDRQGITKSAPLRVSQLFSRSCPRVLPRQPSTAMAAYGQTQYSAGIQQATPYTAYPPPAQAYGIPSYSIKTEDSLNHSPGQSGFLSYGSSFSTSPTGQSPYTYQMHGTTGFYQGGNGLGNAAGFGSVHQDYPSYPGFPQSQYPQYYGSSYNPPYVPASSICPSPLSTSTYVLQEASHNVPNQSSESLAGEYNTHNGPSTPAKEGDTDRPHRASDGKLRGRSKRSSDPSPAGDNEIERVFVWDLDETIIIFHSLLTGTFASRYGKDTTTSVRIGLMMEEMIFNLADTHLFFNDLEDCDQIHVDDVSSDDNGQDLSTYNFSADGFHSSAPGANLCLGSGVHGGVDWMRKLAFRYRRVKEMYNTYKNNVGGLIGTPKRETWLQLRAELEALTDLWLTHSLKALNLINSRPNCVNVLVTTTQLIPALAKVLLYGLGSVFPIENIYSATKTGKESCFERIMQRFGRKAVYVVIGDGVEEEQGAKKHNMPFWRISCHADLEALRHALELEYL

The compounds below were run against Protein phosphatase EYA2 (Homo sapiens) (UniProt O00167) (assay: qHTS Assay for Inhibitors of the Phosphatase Activity of Eya2). Conditions: recombinant Eya2, OMFP fluorescence dephosphorylation (OMFP is methylfluorescein phosphate); activity, negative = inhibition: at 76.9 µM (top of the series) unless noted.
Outline: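 Eya2 protein (added as 0.2 uM solution) was preincubated with compound for 10 min at ambient temperature in 50 mM HEPES pH 7.5, 50 mM NaCl, 5 uM MgCl2, 0.05% BSA, 1 mM DTT. OMFP (added at 50 uM) then reacted 10 min; fluorescence read at 485/525 nm.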
On the % scale 0 is the no-effect control and ±100 the full control effect; potency means the concentration at half of the fitted maximal effect.

Question: For `O=C(CCc1ccccc1)NC1C2CC3CC(C2)CC1C3` (configuration not stated), which Potency is on record?
Answer: inconclusive: 20 µM [inhibitor, single point]

Question: How did the Potency turn out when `C#CCOCCOCCOCCNc1nc(N2CCN(C(=O)CCCCCCCCCCNC(=O)[C@H]([C@@H](C)CC)n3cc(CCCCN=C(N)N)nn3)CC2)nc(N2CCN(C(=O)CCCCCCCCCCNC(=O)[C@H](CO)n3cc(CCCSC)nn3)CC2)n1` was run?
Answer: active: 31.6 µM

Question: Which Potency does the source give for `CNc1ccccc1NC(=O)CCn1c(=S)oc2ccccc21` here?
Answer: inconclusive: 31.6 µM [inhibitor, partial curve, poor fit]

Question: For `Cc1c(C(=O)N/N=C/c2cccs2)nc2ccccn12`, which Potency is on record?
Answer: inactive

Question: How did the Potency turn out when `CC(C)Oc1ccc(C(=O)CCN2CCCCC2)cc1` was run?
Answer: inactive

Question: For `COc1ccccc1/C=C/C=C1\Oc2c(ccc(O)c2CN(C)C)C1=O`, which activity, negative = inhibition is on record?
Answer: inconclusive: 44.4% [activator]

Question: How did the Potency turn out when `COc1ccc(CC(=O)Nc2ccc(-c3noc(-c4cccc(OC)c4)n3)cc2)cc1` was run?
Answer: inconclusive: 631 µM [inhibitor, single point]

Question: For `CCc1ccc(-c2nc(SCC(=O)N(C)C3CCS(=O)(=O)C3)n[nH]2)cc1` (configuration not stated), which Potency is on record?
Answer: inconclusive: 12.6 µM [inhibitor, single point]

Question: With `COc1cccc2cc(C(=O)Nc3ccccc3C(=O)N3CCOCC3)oc12` as the compound, how does the Potency read?
Answer: inconclusive: 100 µM [inhibitor, single point]

Question: `N#CC(C#N)=C1C=C2C=C(N3CCOCC3)CCC2CC1` (configuration not stated) was tested. Which Potency did it give?
Answer: inconclusive: 2.51 µM [activator, partial curve]

Question: Which Potency does the source give for `Cc1ccccc1-c1noc(-c2ccccc2C(=O)NCc2ccco2)n1` here?
Answer: inconclusive: 1120 µM [inhibitor, partial curve, poor fit]

Question: How did the Potency turn out when `Cc1ccc(CN(C)C(=O)c2cccc(S(=O)(=O)N3CCc4ccccc4C3)c2)o1` was run?
Answer: inactive

Question: `Clc1ccccc1Cn1nnc(-c2ccccc2)n1` was tested. Which Potency did it give?
Answer: inactive

Question: For `CCCCn1c(N)c(N(CCOC)C(=O)CSc2nnc(-c3ccc(C(C)(C)C)cc3)n2N)c(=O)[nH]c1=O`, which Potency is on record?
Answer: inconclusive: 89.1 µM [inhibitor, single point]

Question: `Cc1ccccc1S(=O)(=O)NCc1ccc(N2CCN(C)CC2)cc1` was tested. Which Potency did it give?
Answer: inconclusive: 79.4 µM [inhibitor, single point]

Question: With `Cc1cccc(-n2c(-c3csc(C(C)C)c3)n[nH]c2=S)c1` as the compound, how does the Potency read?
Answer: inconclusive: 7.08 µM [inhibitor, partial curve, poor fit]

Question: `O=C(CC1(O)C(=O)N(Cc2ccc3c(c2)OCO3)c2ccccc21)c1ccccc1` (configuration not stated) was tested. Which Potency did it give?
Answer: inactive

Question: For `CCN(CC)C(=O)C(=O)Nc1ccc(OC)c(Cl)c1`, which Potency is on record?
Answer: inconclusive: 100 µM [inhibitor, partial curve]

Question: `CCCCn1nc(C(=O)Oc2ccc3c(C)cc(=O)oc3c2)c2ccccc2c1=O` was tested. Which Potency did it give?
Answer: inactive

Question: `COc1ccc(C(=O)C[n+]2cccc(C(N)=O)c2)cc1` was tested. Which Potency did it give?
Answer: inconclusive: 22.4 µM [inhibitor, single point]

Question: Which Potency does the source give for `Cc1nc2ncnn2c(C)c1CCC(=O)O` here?
Answer: inactive

Question: How did the activity, negative = inhibition turn out when `Nc1nc2ccc(C(=O)N3CCCCC3)cc2s1` was run?
Answer: inconclusive: 32.5% [activator]

Question: How did the Potency turn out when `O=C(NNc1c2ccccc2nc2ccccc12)c1cccc(O)c1` was run?
Answer: inactive

Question: How did the Potency turn out when `Cc1ccc(C(=O)NCCNS(C)(=O)=O)cc1` was run?
Answer: inconclusive: 50.1 µM [inhibitor, partial curve, poor fit]

Question: `Cn1nnnc1SCC(=O)C(C)(C)C` was tested. Which Potency did it give?
Answer: inconclusive: 200 µM [inhibitor, single point]

Question: How did the Potency turn out when `CCCCC(=O)Nc1ccccc1N1CCOCC1` was run?
Answer: inconclusive: 100 µM [inhibitor, single point]

Question: How did the Potency turn out when `CCOc1ccc(NC(=S)NC(=O)/C=C/c2ccco2)cc1` was run?
Answer: inactive

Question: `Cc1ccc(-c2ccc(OC(=O)c3ccc(=O)[nH]c3)c(C)c2)cc1` was tested. Which Potency did it give?
Answer: inconclusive: 178 µM [inhibitor, partial curve, poor fit]

Question: Which Potency does the source give for `COc1ccccc1NC(=O)Nc1ccnn1C1CCCCC1` here?
Answer: inactive

Question: How did the Potency turn out when `COc1ccccc1CCC(=O)OCC(=O)Nc1ccc(C)c(S(=O)(=O)N2CCCCC2)c1` was run?
Answer: inactive

Question: For `CCc1ccccc1N1C(=O)[C@@H]2Cc3ccccc3CN2C1=O`, which Potency is on record?
Answer: inconclusive: 89.1 µM [inhibitor, single point]

Question: With `CC(C)(O)C#Cc1ccc(C(=O)N2CCN(C(=O)c3ccco3)CC2)cc1` as the compound, how does the Potency read?
Answer: inactive

Question: For `CNC(=O)NNC(=O)c1nc(-c2ccccc2)c(C)o1`, which Potency is on record?
Answer: inconclusive: 100 µM [inhibitor, single point]

Question: `CCOc1ccc(C(C)NC(=S)NC2CCCCC2)cc1` (configuration not stated) was tested. Which Potency did it give?
Answer: inconclusive: 100 µM [inhibitor, single point]

Question: `Cc1ccc(S(=O)(=O)Nc2ccccc2CNc2cccc(C)n2)cc1` was tested. Which Potency did it give?
Answer: inactive

Question: For `CCOC(=O)c1cnc2c(-c3ccccc3)c(-c3ccccc3)nn2c1C`, which Potency is on record?
Answer: inconclusive: 89.1 µM [inhibitor, single point]

Question: `COC(=O)c1ccccc1S(=O)(=O)N(Cc1ccco1)Cc1cc2cc(OC)ccc2[nH]c1=O` was tested. Which Potency did it give?
Answer: inactive

Question: Which Potency does the source give for `CCCC(=O)Nc1ccc(-c2cn3cccnc3n2)cc1` here?
Answer: inconclusive: 501 µM [inhibitor, single point]

Question: How did the Potency turn out when `Cc1ccc(N2C(=O)c3cccc4c(N)ccc(c34)C2=O)c2cccnc12` was run?
Answer: inconclusive: 5.01 µM [activator, full curve]

Question: `O=C(NCCO)c1ccc2c3n(nc2c1)-c1ccc(Cl)cc1CO3` was tested. Which Potency did it give?
Answer: inactive

Question: How did the Potency turn out when `CCOC(=O)c1ccc(Nc2cc(C)nc(-c3ccccc3)n2)cc1` was run?
Answer: inconclusive: 126 µM [inhibitor, partial curve]

Question: With `CCCC(=O)OCC(=O)Nc1ccc([N+](=O)[O-])cc1C#N` as the compound, how does the Potency read?
Answer: inactive

Question: With `CC(C(=O)NC1CCCC1)N(C(=O)Cn1nnc(-c2ccc(F)cc2)n1)c1ccccc1F` (configuration not stated) as the compound, how does the Potency read?
Answer: inactive

Question: For `Cc1cc(C)c(C)c(OCC(=O)O/N=C(\N)c2ccncc2)c1`, which Potency is on record?
Answer: inconclusive: 31.6 µM [inhibitor, partial curve]

Question: For `CCOc1ccc(N(CC)C(=O)c2cn(CC)c(=O)c3cc(OC)c(OC)cc23)cc1`, which Potency is on record?
Answer: inconclusive: 70.8 µM [inhibitor, partial curve, poor fit]

Question: `Cc1ccc(S(=O)(=O)Nc2ccccc2N(C)S(=O)(=O)c2ccc(C)cc2)cc1` was tested. Which Potency did it give?
Answer: inactive
